Measured values: PubChem BioAssay AID1487 (National Center for Advancing Translational Sciences (NCATS), 2009)
Where “and” joins values, the source holds several entries; their conditions need not be identical. Equal values may be shown once. The list shows a part of the results. The main result of the screen is listed elsewhere. These columns were measured beside it and carry no call. The list favours compounds with an active or inconclusive main result. The note in brackets gives the kind of curve behind each potency; many fits are weak.

Assay: qHTS Assay for Modulators of Lamin A Splicing
Settings: HeLa LMNA splicing GFP/RFP minigene ratio, 48 h
Procedure, shortened: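 Read-out is the ratio of GFP to DsRed2 object intensity, acquired by 488 nm laser-scanning cytometry on HeLa lamin A-EGFP minigene reporter cells. Compound incubation 48 hrs at 37 °C in Opti-MEM with 2% FBS; DMSO 0.5% final.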

[1] = measured here: GFP splicing reporter channel
[2] = measured here: RFP viability control channel

| SMILES | AC50 [1] | AC50 [2] |
| --- | --- | --- |
| O=c1ccc2ccccc2o1 | 3.55 µM [rising, single point] and 4.47 µM [falling, partial curve, poor fit] | 794 nM [falling, full curve, poor fit] |
| Cc1cccc(N2CCN(CC(=O)NCC3CCCCC3)CC2)c1C | 15800 nM [rising, single point] | 22400 nM [rising, single point] |
| COc1ccc(OC)c(NC(=O)Cc2nn(C)c(=O)c3ccccc23)c1 | 7940 nM [rising, partial curve] | 11200 nM [rising, partial curve] |
| Cc1ccc(C(=O)c2cn[nH]c2-c2ccccc2O)cc1 |  | 8910 nM [rising, partial curve, poor fit] |
| CC(C)C(C(=O)NCc1ccco1)N(C(=O)CNS(=O)(=O)c1ccccc1)C1CCCC1 (stereo unspecified) |  | 398 nM [falling, full curve, poor fit] |
| NC(=O)CSc1nnnn1-c1cccc(Cl)c1 | 25.1 nM [falling, full curve, poor fit] | 35.5 nM [falling, full curve] |
| CC(Nc1oc(-c2ccco2)nc1C#N)c1ccccc1 (stereo unspecified) |  | 4470 nM [rising, full curve, poor fit] |
| Cc1ccccc1CN1CCC(CNC(=O)c2cc3ccc4cccnc4c3[nH]2)CC1 | 8.91 nM [falling, full curve, poor fit] |  |
| C=CCn1c(CCC(O)CCCCC)n[nH]c1=S (stereo unspecified) | 14100 nM [rising, single point] | 35500 nM [rising, single point] |
| O=C(CCc1c[nH]c2ccccc12)N1CCN(c2ccc(O)cc2)CC1 |  | 10000 nM [rising, partial curve, poor fit] |
| COC(=O)C1=C(C)N(CCCC(=O)O)C(=O)NC1c1cccs1 (stereo unspecified) | 28.2 nM [falling, full curve, poor fit] |  |
| NC(=O)[C@@H]1CCNc2c(I)cc([N+](=O)[O-])cc2C(=O)N[C@@H](CCC(=O)O)C(=O)N[C@@H](CO)C(=O)N1 | 5.01 nM [falling, full curve, poor fit] | 5.01 nM [falling, full curve, poor fit] |
| CN(C)c1ccnc2sc(C(=O)NCc3ccccc3)c(N)c12 |  | 17800 nM [rising, single point] |
| Cc1ccc(-n2c(=S)[nH]c3[nH]ncc3c2=O)cc1 |  | 251 nM [falling, full curve, poor fit] |
| COc1ccc(-c2cc(C(F)(F)F)n3nc(C(=O)OC(C)C)cc3n2)cc1 | 100 nM [rising, full curve, poor fit] |  |

Taken from above.
For AC50 [2], `CC(C)C(C(=O)NCc1ccco1)N(C(=O)CNS(=O)(=O)c1ccccc1)C1CCCC1` (stereo unspecified) has the entry 398 nM [falling, full curve, poor fit]
For AC50 [2], `O=c1ccc2ccccc2o1` has the entry 794 nM [falling, full curve, poor fit]
